Results of single-concentration screens

The filed quantity is “Percent Effect” (%). The record does not define 0% and 100%; most values in the screen are far below 50% and negative numbers occur (in some assays of this library far below -100). Compounds were drawn at random from those tested, without regard to their results.

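Whole-parasite assay of Trypanosoma brucei over 72 hours; the read-out is not stated. Concentration: 10 µM. Direction is inferred from retests: higher values go with stronger inhibition. Values scatter widely below zero; nearly all retest evidence comes from the higher of the two concentrations used. Size under these conditions: about 2,700 compounds, about 14 of them at 50% or above in at least one test.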

| structure | percent effect |
|---|---|
| `Cc1nn(C)c(C)c1CC(=O)NCc1ccnc(N2CCOCC2)c1` | -3.772% |
| `CCc1[nH]ncc1C(=O)N1CCOC(c2nc(C)n[nH]2)C1` (stereo not drawn) | -23.44% |
| `Cc1cc(C)n(CC2CN(CC(=O)NCc3cccs3)CCO2)n1` (stereo not drawn) | -81.46% |
| `CCc1noc(CNC2CCCN(Cc3noc(C4CC4)n3)C2)n1` (stereo not drawn) | -38.02% |
| `c1ccc(-n2ncc(CN3CCCC(Cn4cncn4)C3)n2)cc1` (stereo not drawn) | -11.08% |
| `Cn1cc(C(=O)Nc2cc(F)ccc2OCC2CCCO2)ccc1=O` (stereo not drawn) | -28.53% |
| `Cc1ccc(N2CCCN(C(=O)CCc3nccs3)CC2)nn1` | -48.45% |
| `Cc1ncc(Cl)c(C(=O)N2CCCC(n3nc(C)nc3C)C2)n1` (stereo not drawn) | -58.25% |
| `Cc1ccccc1CNC(C)c1ccc(OCC(=O)NC2CC2)cc1` (stereo not drawn) | -39.86% |
| `Cc1nc(CN2CCCC(c3cc(C(F)(F)F)[nH]n3)C2)cs1` (stereo not drawn) | -13.98% |
| `Cc1ncsc1C(=O)NCc1ccnc(N2CCN(C)CC2)c1` | -65.11% |
| `CCN1CCN(C(=O)c2ccc(Cn3ccccc3=O)o2)CC1` | -56.49% |
| `Cc1nc2c(c(C)c1CC(=O)NCc1ccccc1F)c(=O)[nH]n2C` | -49.42% |
| `CC(=O)N(C)C(c1cccc(F)c1)c1ccccn1` (stereo not drawn) | -61.82% |
| `CCc1nc(C2CCCN2CC(=O)Nc2cc(C)nn2C)no1` (stereo not drawn) | -13.89% |
| `O=C(CN1CCCCC1Cn1cncn1)NCCc1ccsc1` (stereo not drawn) | -48.66% |
| `Cc1nc(CN2CCN(C(=O)c3sccc3C3CC3)CC2)oc1C` | -65.17% |
| `CCCc1noc(CN2CCN(c3nccs3)CC2)n1` | -26% |
| `Cn1c(NCC(O)c2ccc(F)c(F)c2)c(C#N)c(=O)n(C)c1=O` (stereo not drawn) | -18.54% |
| `Cc1ccc(C(=O)NCc2cccnc2N(C)C)s1` | -42.16% |
| `CC(C)c1nc2c(n1C)CCN(CC(=O)Nc1ccncc1)C2` | -43.62% |
| `CCC1CN(C(=O)NCc2cccnc2-n2cccn2)CCO1` (stereo not drawn) | -18.53% |
| `N#Cc1ccc(OCC(O)CN2CCC(Cn3cccn3)CC2)cc1` (stereo not drawn) | -20.13% |
| `CCc1nnc2n1CCN(Cc1cc(Cl)c3c(c1)OCCCO3)C2` | -77.31% |
| `Cn1cc(CCC(=O)N2CCCC(n3cncn3)C2)cn1` (stereo not drawn) | -1.924% |
| `Cc1ccccc1CC(C)NC(=O)Nc1cnn(CC(N)=O)c1` (stereo not drawn) | -9.303% |
| `CC(C)C(=O)NCCNC(=O)CCOc1cccc(F)c1` | -55.44% |
| `Cc1ncsc1C(=O)NCCNC(=O)c1cccs1` | -42.34% |
| `Cc1cnn(CC2CCCCN2Cc2nccn2CC(F)(F)F)c1` (stereo not drawn) | -31.61% |
| `CC(NC(=O)NCCCN(C)S(C)(=O)=O)c1ccc(Cl)cc1` (stereo not drawn) | -13.4% |
| `Cc1cc(OCC(=O)N2CCCC(c3nc(C)c(C)s3)C2)no1` (stereo not drawn) | -2.059% |
| `Cc1cc(C(=O)NCc2ccc(N3CCN(C)CC3)nc2)c(C)s1` | -40.73% |

Repeated from the top, 3 entries:

structure,percent effect
Cc1nn(C)c(C)c1CC(=O)NCc1ccnc(N2CCOCC2)c1,-3.772%
CCc1[nH]ncc1C(=O)N1CCOC(c2nc(C)n[nH]2)C1 (stereo not drawn),-23.44%
Cc1cc(C)n(CC2CN(CC(=O)NCc3cccs3)CCO2)n1 (stereo not drawn),-81.46%

Measurements from “University of Dundee, Small-Polar-MMV Screening Library” (2021), ChEMBL document CHEMBL3988442.